According to patent publication US12006368:
No constants are given. Whether binding was seen depends on the method and setting. Some binding calls cover weakened binding; strength is not graded here.

Chains of the proteins cited; added tags and fusions are not shown. Residues count along the entry.
UniProt Q13467, residues 27-152: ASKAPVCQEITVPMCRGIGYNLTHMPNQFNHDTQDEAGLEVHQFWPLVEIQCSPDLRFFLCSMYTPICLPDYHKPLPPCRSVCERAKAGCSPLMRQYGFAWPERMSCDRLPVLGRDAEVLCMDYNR

T1: Frizzled 8 (human) (UniProt Q9H461)
T1 sequence (looked up): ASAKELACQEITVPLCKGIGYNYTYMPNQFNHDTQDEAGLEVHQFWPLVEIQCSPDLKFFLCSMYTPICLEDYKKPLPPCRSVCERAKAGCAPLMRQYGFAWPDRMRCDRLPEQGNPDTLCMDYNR


Columns and labels:
[1] = target: Fzd5 cysteine rich domain (CRD), C-terminally biotinylated (human) (UniProt Q13467); test: phage ELISA on immobilised antigen (Initial Binding)
[2] = target: Fzd5 cysteine rich domain (CRD), C-terminally biotinylated (human) (UniProt Q13467); test: summary in Table 3; method not given there
[3] = target: Fzd8 cysteine rich domain (CRD), C-terminally biotinylated (human) (UniProt Q9H461); test: summary in Table 3; method not given there
Frizzled 8 (human) = target: T1, Frizzled 8 (human); test: phage ELISA on immobilized antigen (initial binding)

binding [1] | binding [2] | binding [3] | binding (Frizzled 8 (human)) | Binder
binds | binds |  |  | 4A12 Fab (Fab, V domains shown) VH: QVQLQQSGPELVKPGASVKLSCKASGYTFTNYDINWVKQRPGQGLEWIGWIYPRDGSTKYNEKFKGKATLTVDTSSSTAYMELHSLTSEDSAVYFCVRSAWGFAYWGQGTLVTVSA VL: DIVMTQSHKFMSTSVGDRVSITCKASQDVGTAVAWYQQKPGQSPKLLIYWASTRHTGVPDRFTGSGSGTDFTLTINNVQSEDLADYFCQQYSTYPLTFGAGTKLELKR
 | binds | binds | binds | 005S-H05 (Fab, V domains shown) VH: QVQLVQSGAEVKKPGASVKVSCKASGYTFTSYYMHWVRQAPGQGLEWMGRINPNSGGTNYAQKFQGRVTMTRDTSTSTVYMELSSLRSEDTAVYYCARVPDFWSGYLDYWGQGTLVTVSS VL: DIQMTQSPSSLSASVGDRVTITCRASQGISSALAWYQQKPGKAPKLLIYAASSLQSGVPSRFSGSGSGTDFTLTISSLQPEDFATYYCQQTYSMPITFGQGTRLEIKR
